Screen size: about 53,000 sequences; about 3,700 (7%) were called active.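 The calls were made as follows: active = gene knockdowns whose robust z-score for IL-1 alpha signal is at least 2 or at most -2, so actives lie on both sides; inactive = the rest.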 Some of the results follow.
test: Components of the Cytosolic LPS Sensing Pathway: Gene Identification via Genome-wide siRNA Screen; settings: RAW264.7 macrophages, IL-1a HTRF, actives lie on both sides, screened at 100 nM (by protocol), cells primed 5 h with Pam3CSK4 first;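 also: robust z of the log signal after scaling to non-targeting control siRNA wells of the plate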
Summary of the method: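 Cells (RAW264.7, 1×10^4 per well) were transfected with siRNA at 100 nM and cultured 48h at 37 degrees C. Pam3CSK4 was added for 5 hours; LipidA transfection followed for 24 hour. IL-1a was then measured by HTRF.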

Sequence	z-score
GGUUUGAAAGUUCUUUUGUTT against Dph3	inactive: -0.35
GGCAUUUCAGGUUCAUGGATT against Zfp101	inactive: 0.0509
CCCUGACACUAAUUUUCCUTT against Nagpa	inactive: 0.446
CGUUUAUGAAGUGAAAGAUTT against Mrpl37	inactive: -0.636
CCAGAUGAACGGGACAAACTT against Cited2	inactive: 0.769
GGUGCCAGAUGUCAAGAAATT against Rpn2	inactive: -0.685
GGGAAUGUGGAAGAGUUCCTT against Atg4c	inactive: 0.896
GCAGUAGCUGAAUUUUUUATT against Cnot10	inactive: -1.43
GGAAGAAGAAGACCAGGGATT against Parvb	inactive: -0.0188
CGGAUAUGAAUUUUUUGCUTT against Ppp1cb	inactive: 0.116
CCUGAUCGUCAUCUAUACCTT against Irs3	inactive: -1.73
GCGAAUUCAUGUUUGAGGATT against Foxf2	inactive: 0.023
GGUUCCAGCUAAUAGCCUGTT against Plekhj1	inactive: 0.175
GGCUUGGUAUGAUGCGCACTT against Rbm12	inactive: 0.486
CCUCAUCAAAAUUUACCAUTT against Fcrls	inactive: -0.638
AACUCCCUCCCUGUUGUAGTT against A4galt	inactive: -0.361
CCAUAUUUAAGUCCCUGUCTT against Pim1	inactive: -1.1
GGUCUAUGUACUCGCCAAATT against Sirpa	inactive: -0.271
GGAUAUUAUCUUCAGACCATT against Slc15a5	inactive: -0.628
GGAAAAUUGGGAAAAUGUGTT against Sell	inactive: -0.712
GGAAGUUGAUAAGAGAGUGTT against Esco2	inactive: -0.524
GCUAAAUUUACUUGUAUGGTT against Cd46	inactive: -0.349

Sequence	z-score
GGAGAAAGCCUUCCUUAGUTT against Trpc5	inactive: -0.115
GCAAAUCCCAGUCUCACCATT against Tmem88	inactive: -1.43
GGAAGAUACUAAUAGAGUATT against Enpep	inactive: -0.00304
GCAUACAGAUUUACACCUGTT against Rhox11	inactive: -0.524
GGAAAGAGCCAUCCUUUGATT against Gnmt	inactive: -0.186
GGCUCUUCUUAUGCACCCUTT against Pdyn	inactive: -0.543
CCACCAAUCCCAUCCAAAUTT against Sox2	inactive: -0.279
GGACAAUUGGAAGAUUUGGTT against Ccdc88a	inactive: -1.23
GCUUGAAUACCAUCAGUCATT against Kank4	inactive: 0.069
GCCUUUCUACAGGUCUCUCTT against Asb18	inactive: -0.699
GGGUUGAUAGCAGAUAUCCTT against Cd52	inactive: -0.501
GGGAAGGAUAUCAUUGUGCTT against Olfr920	inactive: -1.84
GGCUUUGAGCCCGAAAAUCTT against Zfpm2	inactive: 0.742
CCUGAUUGUCUUCAAUGGGTT against Cant1	inactive: -0.84
GGAGCAAGGCUACAUUUUUTT against Itih3	inactive: 1.36
GGUCGAAUGACUCAUCUUATT against Hs3st3a1	inactive: 0.335
GCAUCCUGUGAGGUCUAUCTT against Zfp316	inactive: 1.16
UUGGUUCAACUGCAUCGAATT against Olfr872	inactive: 0.44
GCCGGAAACUCAAGAUAGCTT against F830208F22Rik	inactive: -0.74
GGAGGAAUGGAUGAACAAATT against Flcn	inactive: 1.02
CCAAAAUCGAUAAUUCCCUTT against Acvr1	inactive: -0.00779
GGCCCAAUGCUGUAAAUAUTT against Hoxb5	inactive: -0.835

Single values from above.
Entry for GCAAAUCCCAGUCUCACCATT against Tmem88 under z-score: inactive: -1.43
Entry for GCCGGAAACUCAAGAUAGCTT against F830208F22Rik under z-score: inactive: -0.74
Entry for GGAGGAAUGGAUGAACAAATT against Flcn under z-score: inactive: 1.02
Entry for GGACAAUUGGAAGAUUUGGTT against Ccdc88a under z-score: inactive: -1.23
Entry for GCGAAUUCAUGUUUGAGGATT against Foxf2 under z-score: inactive: 0.023
Entry for GGCCCAAUGCUGUAAAUAUTT against Hoxb5 under z-score: inactive: -0.835
Entry for CCUCAUCAAAAUUUACCAUTT against Fcrls under z-score: inactive: -0.638

(listing goes on)

Sequence	z-score
GCAGAUCAAUGGAUUCACCTT against Olfr57	inactive: -1.51
GGUGUUUCAGGUAUUGAAUTT against Ttk	inactive: 0.703
GGCAUUAGGAUACAUAACATT against Rpgrip1l	inactive: -0.743
CGGGAAGAGUACUUGUUUUTT against Cfl1	inactive: 0.153
GGAAGAUGUUAAGAGUUACTT against Slc1a3	inactive: -0.865
GGGUUGGUACCUAAGAAUGTT against E2f4	inactive: 0.0189
CCCGGUUGUCUGGAUAUGATT against Map3k3	active: -2.39
GGAAGAAUUGCUUUGCCUCTT against Krt35	inactive: 0.163
GGAGCUGAAGAUGAGUUUGTT against Abhd4	inactive: -0.115
GGCCUACUUUGAUGUUAAATT against Cdc23	inactive: 0.319
GCCACUACGCUCUACUGCATT against Emc1	inactive: -0.538
CGCCAUUUACACUUCCUGCTT against Sval2	inactive: -0.622
GGUCGCCUACAAAAAAAAATT against Aldh1l1	inactive: 0.542
GCUCAUUAUUAAACUUACCTT against Tfrc	inactive: 1.44
GGUGCCUUCCAAAAUUACGTT against Slc22a7	inactive: 0.963
GGAUAAUCGAAUUGAUUGUTT against Tmem30a	inactive: 0.751
GGCAACAGUAUUUAUGAAUTT against Sim2	inactive: -0.45
GCUAAAUGAGAACAACUCGTT against Trappc2	inactive: 0.0562
GGAAUUGGAUGUGAGCAACTT against Vasn	inactive: 0.586
GGAUAAAGGACGAUGAGAUTT against Tmem63b	inactive: 0.586
GGAUACCAUCAUUGAUGUCTT against Dmap1	active: -2.29
GCUGGGUGAUAAACAAUGUTT against Rhbg	active: 3.42

Sequence	z-score
GGCUGUGCUCUCACUCUAUTT against Actg2	inactive: -0.426
GGUAAAUGAUCUGAAAAUGTT against Rps6ka6	inactive: -0.46
GCUAGGAAUGAUGUGAGGCTT against Ppp5c	inactive: -1.26
GGACUGCUUGUGGUAUCUGTT against Shisa4	inactive: -1.94
GCCGGAAGGCCAUUUAUAATT against Acadsb	inactive: 0.51
GGCGGUAUUUUGCUGAUUUTT against Ccnj	inactive: -0.101
GGAAGAGGUUAGCAAGCAUTT against Iws1	active: 2.27
CCAUAGACUAUUAUCCUUATT against Uhrf1bp1l	inactive: -0.282
GGAAUACGGAUUGAUGGAGTT against Fli1	active: 2.19
GCAACUCGACUGGUACUCUTT against Peg10	inactive: 0.874
GGAGCUGAAUGAAAACCAGTT against Taok1	inactive: -0.809
CGUGUAUCUAGUCAUACGGTT against Tap2	inactive: -0.172
GCACAAGCUGAAGAAGUCATT against S100b	inactive: 0.295
GAGCCAUAUACCUCGUCCUTT against Mier2	inactive: -0.531
GGGAGAGACAUAUAUCCUGTT against Snhg11	inactive: 0.107
GAAAAGCCUAUGUAACUUCTT against Iltifb	inactive: 1.5
CCAGUGAAGGUUUACUACUTT against Mrpl1	inactive: 0.0287
GGAAAUCUACGAUUUCUAATT against Cyria	active: 2.55
GGAUAAUCUUGCUGAAAACTT against Clec11a	inactive: 0.5
GGGAGGUCAAAAACUUCCATT against Coq3	inactive: -0.485
GCUGGUGACUUGUAAAAGCTT against Meox1	inactive: -0.0787
GGACUGCAUCCAAAUUCCATT against Dynll1	inactive: 0.298

Sequence	z-score
GGCCUGGAGAAAAAACUUATT against Sfpq	inactive: 0.913
CCAUUUGAAGAGUAUUCCCTT against Lrrc2	inactive: 0.0362
CCCAGCUCACGUAUUUAUUTT against Pgf	inactive: 0.173
GGAAAGACUGCCUAUUCUGTT against Plin2	inactive: 0.515
CGAGAAAAACAACUCCUUUTT against Foxj3	inactive: -0.0817
GGGUCAGUUCAUAUGCCUCTT against Laptm5	inactive: 0.569
GGCAUGAGCUAUCAGGACUTT against Efcab6	inactive: 1.37
CCACGAGUAGUAAAAAAUATT against AI504432	inactive: -0.654
CCGUGAGGAUUUCAAGCGATT against P2ry6	inactive: 0.00646
GGUGUAUGAAUCUGUGCUGTT against Cldn5	inactive: -0.647
GCGAAGUCAAGCCUACUUUTT against B3gat1	inactive: 0.343
CCUUAGACCUAACAAACAATT against Rab23	inactive: -0.353
GGAGGAUAUAAAAAAGAAGTT against L2hgdh	inactive: 0.00317
GGAGAUGAACAAGGACCUATT against Apoa1	inactive: 0.717
GGUUACAGUGACACAGCCUTT against Slc16a8	inactive: -1.98
AUCUUUCAGUCACACGACCTT against A730085E03Rik	inactive: -0.942
GGAUAUUAACUAUGGGUUUTT against Tlr2	inactive: 0.605
GGUCCUAAAUUUCUACCAATT against Dnase1l1	inactive: -0.15
CGGAGUCAUACUUUUUCGATT against Trim12c	inactive: 0.0182
